# Test results reported in the supplement of paper PMC8728848.
# This is one part of the list.
# Tests used:
# Assay in all cases: glycan array binding signal (z-score within array); higher = stronger binding
# Details in all cases: glycan notation: IUPAC condensed, linker removed
# [1] = target: Fuc(a1-2)Gal(b1-4)GlcNAc(b1-3)Gal(b1-4)GlcNAc(b1-3)Gal(b1-4)GlcNAc
# In short: (§1)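 Glycan array data came from 3228 arrays in the Consortium for Functional Glycomics database, and only arrays with an available protein sequence were kept. Glycan names were put into IUPAC-condensed notation, and columns mapping to the same glycan were averaged. The binding signal is a within-array Z-score, averaged across arrays of one protein sequence run at different concentrations or buffers and across linkers. A negative Z-score can be read as non-binding.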
# [2] = target: Fuc(a1-2)Gal(b1-4)GlcNAc(b1-3)GalNAc
# In short: as §1
# [3] = target: Fuc(a1-2)Gal(b1-4)GlcNAc(b1-3)[Fuc(a1-2)Gal(b1-4)GlcNAc(b1-6)]GalNAc
# In short: as §1
# [4] = target: Fuc(a1-2)Gal(b1-4)GlcNAc(b1-3)[Fuc(a1-3)[Gal(b1-4)]GlcNAc(b1-6)]Gal(b1-4)Glc
# In short: as §1
# [5] = target: Fuc(a1-2)Gal(b1-4)GlcNAc(b1-6)GalNAc
# In short: as §1
# [6] = target: Fuc(a1-2)Gal(b1-4)GlcNAc6S
# In short: as §1
# [7] = target: Fuc(a1-2)Gal(b1-4)[Fuc(a1-3)]GlcNAc
# In short: as §1
# [8] = target: Fuc(a1-2)Gal(b1-4)[Fuc(a1-3)]GlcNAc(b1-2)Man(a1-3)[Fuc(a1-2)Gal(b1-4)[Fuc(a1-3)]GlcNAc(b1-2)Man(a1-6)]Man(b1-4)GlcNAc(b1-4)[Fuc(a1-6)]GlcNAc
# In short: as §1
# [9] = target: Fuc(a1-2)Gal(b1-4)[Fuc(a1-3)]GlcNAc(b1-2)[Fuc(a1-2)Gal(b1-4)[Fuc(a1-3)]GlcNAc(b1-4)]Man(a1-3)[Fuc(a1-2)Gal(b1-4)[Fuc(a1-3)]GlcNAc(b1-2)Man(a1-6)]Man(b1-4)GlcNAc(b1-4)GlcNAc
# In short: as §1
# [10] = target: Fuc(a1-2)Gal(b1-4)[Fuc(a1-3)]GlcNAc(b1-3)Gal(b1-4)[Fuc(a1-3)]GlcNAc
# In short: as §1
# [11] = target: Fuc(a1-2)Gal(b1-4)[Fuc(a1-3)]GlcNAc(b1-3)Gal(b1-4)[Fuc(a1-3)]GlcNAc(b1-3)Gal(b1-4)[Fuc(a1-3)]GlcNAc
# In short: as §1
# [12] = target: Fuc(a1-2)Gal(b1-4)[Fuc(a1-3)]GlcNAc(b1-3)GalNAc
# In short: as §1
# [13] = target: Fuc(a1-2)Gal(b1-4)[Fuc(a1-3)]GlcNAc(b1-3)[Neu5Ac(a2-6)Gal(b1-4)GlcNAc(b1-6)]Gal(b1-4)Glc
# In short: as §1
# [14] = target: Fuc(a1-2)Gal3S(b1-4)GlcNAc
# In short: as §1
# [15] = target: Fuc(a1-2)Gal6S(b1-3)GlcNAc
# In short: as §1
# [16] = target: Fuc(a1-2)Gal6S(b1-3)GlcNAc6S
# In short: as §1
# [17] = target: Fuc(a1-2)Gal6S(b1-4)Glc
# In short: as §1
# [18] = target: Fuc(a1-2)Gal6S(b1-4)Glc6S
# In short: as §1
# [19] = target: Fuc(a1-2)[Gal(a1-3)]Gal
# In short: as §1
# [20] = target: Fuc(a1-2)[Gal(a1-3)]Gal(b1-3)GalNAc
# In short: as §1
# [21] = target: Fuc(a1-2)[Gal(a1-3)]Gal(b1-3)GalNAc(b1-3)Gal(a1-4)Gal(b1-4)Glc
# In short: as §1
# [22] = target: Fuc(a1-2)[Gal(a1-3)]Gal(b1-3)GlcNAc
# In short: as §1
# [23] = target: Fuc(a1-2)[Gal(a1-3)]Gal(b1-3)GlcNAc(b1-2)Man(a1-3)[Fuc(a1-2)[Gal(a1-3)]Gal(b1-3)GlcNAc(b1-2)Man(a1-6)]Man(b1-4)GlcNAc(b1-4)GlcNAc
# In short: as §1
# [24] = target: Fuc(a1-2)[Gal(a1-3)]Gal(b1-3)GlcNAc(b1-2)Man(a1-3)[Fuc(a1-2)[Gal(a1-3)]Gal(b1-3)GlcNAc(b1-2)Man(a1-6)]Man(b1-4)GlcNAc(b1-4)[Fuc(a1-6)]GlcNAc
# In short: as §1
# [25] = target: Fuc(a1-2)[Gal(a1-3)]Gal(b1-3)GlcNAc(b1-3)GalNAc
# In short: as §1
# [26] = target: Fuc(a1-2)[Gal(a1-3)]Gal(b1-3)GlcNAc(b1-6)GalNAc
# In short: as §1
# [27] = target: Fuc(a1-2)[Gal(a1-3)]Gal(b1-4)Glc
# In short: as §1
# [28] = target: Fuc(a1-2)[Gal(a1-3)]Gal(b1-4)GlcNAc
# In short: as §1
# [29] = target: Fuc(a1-2)[Gal(a1-3)]Gal(b1-4)GlcNAc(b1-2)Man
# In short: as §1
# [30] = target: Fuc(a1-2)[Gal(a1-3)]Gal(b1-4)GlcNAc(b1-2)Man(a1-3)[Fuc(a1-2)[Gal(a1-3)]Gal(b1-4)GlcNAc(b1-2)Man(a1-6)]Man(b1-4)GlcNAc(b1-4)GlcNAc
# In short: as §1
binder,measurement,setting,value
TAL6-6LysM (Trichoderma atroviride) (protein) AASKLGVPQPAQRDQVNCQLYAVQPNDNCIDISSKNNITYAQLLSWNPSLSSTCSNLASLNSSSICVSNPKGTFSISSNTVGATDIATTTAPVPSPTLDQTTSRCAKYYQVSDGDDCSHLTAQFAITLKDFIFLNSEVWQNCTNLELGYYYCVEPVGYISTYPGYLPTATTKPFNQTSATSLPYDGDPWARFSSNSSVIPIANGTRVDCYSYVYVKNLTENLFADCWNMASMYEITREELVLWNPSLGNDGSSGSNLSGAEASQVASSIAIPTTAPSSITTNLYTYPCTVAANISYCVALVSSTGALPTNTAPPGPHASGEISNCTAWFAPEAYDTCKSILDIFEMSFANFYKMNPSVGPDCSGLAVGTNYCVSTYPNGEDPNDDWDGDDSIPSISPTGIITPTPTQSGMVSNCNKFYDVHSNDGCSAIASSQHVDLSSLYKWNPAIKTDCSGLQASVYVCIGILTTSMSTTSKLPTTTSKPSTTSKPPTGITTPTPTQSGMVKNCNKFYDVHSGDGCSAIASSQKVNLSSFYLWNPAVKTDCSGLQASVFVCIGTLTTSMSTTTSKLPTTTSKPSTTSKPPTGIITPTPTQNGMVKNCNKFYDVHSGDGCSAIASSQKVNLSSFYLWNPAVKTDCSGLQASVFVCVGTATTTTAAGITTPTPTQSGMVSGCNKFYDVHAGDGCSAIASSQKIALSSLYKWNPAVKTDCSGLQASVYICIGVGNAAAARVTGAAASFLEQKLISEEDLNSAVDHHHHHH,glycan array binding signal (z-score),[1],0.084
same,glycan array binding signal (z-score),[2],0.064
same,glycan array binding signal (z-score),[3],-0.205
same,glycan array binding signal (z-score),[4],0.428
same,glycan array binding signal (z-score),[5],3.12
same,glycan array binding signal (z-score),[6],0.291
same,glycan array binding signal (z-score),[7],-0.196
same,glycan array binding signal (z-score),[8],0.008
same,glycan array binding signal (z-score),[9],-0.207
same,glycan array binding signal (z-score),[10],-0.762
same,glycan array binding signal (z-score),[11],2.68
same,glycan array binding signal (z-score),[12],1.62
same,glycan array binding signal (z-score),[13],1.82
same,glycan array binding signal (z-score),[14],0.064
same,glycan array binding signal (z-score),[15],-0.396
same,glycan array binding signal (z-score),[16],1.45
same,glycan array binding signal (z-score),[17],-0.385
same,glycan array binding signal (z-score),[18],0.326
same,glycan array binding signal (z-score),[19],0.612
same,glycan array binding signal (z-score),[20],-0.805
same,glycan array binding signal (z-score),[21],0.209
same,glycan array binding signal (z-score),[22],1.38
same,glycan array binding signal (z-score),[23],-0.506
same,glycan array binding signal (z-score),[24],-1.23
same,glycan array binding signal (z-score),[25],-0.133
same,glycan array binding signal (z-score),[26],0.723
same,glycan array binding signal (z-score),[27],0.491
same,glycan array binding signal (z-score),[28],1.2
same,glycan array binding signal (z-score),[29],-0.907
same,glycan array binding signal (z-score),[30],0.478

# A section from the list above, for reference:
binder,measurement,setting,value
TAL6-6LysM (Trichoderma atroviride) (protein) AASKLGVPQPAQRDQVNCQLYAVQPNDNCIDISSKNNITYAQLLSWNPSLSSTCSNLASLNSSSICVSNPKGTFSISSNTVGATDIATTTAPVPSPTLDQTTSRCAKYYQVSDGDDCSHLTAQFAITLKDFIFLNSEVWQNCTNLELGYYYCVEPVGYISTYPGYLPTATTKPFNQTSATSLPYDGDPWARFSSNSSVIPIANGTRVDCYSYVYVKNLTENLFADCWNMASMYEITREELVLWNPSLGNDGSSGSNLSGAEASQVASSIAIPTTAPSSITTNLYTYPCTVAANISYCVALVSSTGALPTNTAPPGPHASGEISNCTAWFAPEAYDTCKSILDIFEMSFANFYKMNPSVGPDCSGLAVGTNYCVSTYPNGEDPNDDWDGDDSIPSISPTGIITPTPTQSGMVSNCNKFYDVHSNDGCSAIASSQHVDLSSLYKWNPAIKTDCSGLQASVYVCIGILTTSMSTTSKLPTTTSKPSTTSKPPTGITTPTPTQSGMVKNCNKFYDVHSGDGCSAIASSQKVNLSSFYLWNPAVKTDCSGLQASVFVCIGTLTTSMSTTTSKLPTTTSKPSTTSKPPTGIITPTPTQNGMVKNCNKFYDVHSGDGCSAIASSQKVNLSSFYLWNPAVKTDCSGLQASVFVCVGTATTTTAAGITTPTPTQSGMVSGCNKFYDVHAGDGCSAIASSQKIALSSLYKWNPAVKTDCSGLQASVYICIGVGNAAAARVTGAAASFLEQKLISEEDLNSAVDHHHHHH,glycan array binding signal (z-score),[14],0.064
same,glycan array binding signal (z-score),[15],-0.396
